Results reported in PMC4759581.
Construct, isoform or probe ends are uncertain for at least one entry. A negative result means that nothing was seen under these conditions.

Tested on: human lactate dehydrogenase (hLDH) (Homo sapiens)
Experiment: EMSA
Settings: 1000 nM hLDH; EMSA: 25 nM strand, 0-2500 nM PfLDH (tetramer concentration in legends; text says Kd per subunit), 25 mM Tris-HCl pH 7.5, 100 mM NaCl, 20 mM imidazole, 25 C 1 h; recombinant protein; single-stranded DNA

Row | Sequence | binding result
1 | TGCTCAGTCAGTCTCTGAATTTACCAGGAGGTTTTTTTTTTTTTTTTTTTTTCTGGGCGGTAGAACCATAGTGACCCAGCCGTCTAC [aptamer staple 77] | no binding
2 | AGAGGCATAATTTCATCTTCTGACTATAACTATTTTTTTTTTTTTTTTTTTTCTGGGCGGTAGAACCATAGTGACCCAGCCGTCTAC [aptamer staple 89] | no binding
3 | CCGGAAACACACCACGGAATAAGTAAGACTCCTTTTTTTTTTTTTTTTTTTTCTGGGCGGTAGAACCATAGTGACCCAGCCGTCTAC [aptamer staple 81] | no binding
4 | TTATTACGGTCAGAGGGTAATTGAATAGCAGCTTTTTTTTTTTTTTTTTTTTCTGGGCGGTAGAACCATAGTGACCCAGCCGTCTAC [aptamer staple 83] | no binding
5 | CGGAATTATTGAAAGGAATTGAGGTGAAAAATTTTTTTTTTTTTTTTTTTTTCTGGGCGGTAGAACCATAGTGACCCAGCCGTCTAC [aptamer staple 95] | no binding
6 | TCATTACCCGACAATAAACAACATATTTAGGCTTTTTTTTTTTTTTTTTTTTCTGGGCGGTAGAACCATAGTGACCCAGCCGTCTAC [aptamer staple 87] | no binding
7 | TATCACCGTACTCAGGAGGTTTAGCGGGGTTTTTTTTTTTTTTTTTTTTTTTCTGGGCGGTAGAACCATAGTGACCCAGCCGTCTAC [aptamer staple 76] | no binding
8 | TGAGGCAGGCGTCAGACTGTAGCGTAGCAAGGTTTTTTTTTTTTTTTTTTTTCTGGGCGGTAGAACCATAGTGACCCAGCCGTCTAC [aptamer staple 79] | no binding
9 | CTAAAGCAAGATAGAACCCTTCTGAATCGTCTTTTTTTTTTTTTTTTTTTTTCTGGGCGGTAGAACCATAGTGACCCAGCCGTCTAC [aptamer staple 97] | no binding
10 | GAGCAAAAACTTCTGAATAATGGAAGAAGGAGTTTTTTTTTTTTTTTTTTTTCTGGGCGGTAGAACCATAGTGACCCAGCCGTCTAC [aptamer staple 93] | no binding
11 | TATGTAAACCTTTTTTAATGGAAAAATTACCTTTTTTTTTTTTTTTTTTTTTCTGGGCGGTAGAACCATAGTGACCCAGCCGTCTAC [aptamer staple 91] | no binding
12 | CTTTACAGTTAGCGAACCTCCCGACGTAGGAATTTTTTTTTTTTTTTTTTTTCTGGGCGGTAGAACCATAGTGACCCAGCCGTCTAC [aptamer staple 85] | no binding
